The nature of this assay: qHTS Assay for Lipid Storage Modulators in Drosophila S3 Cells.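 For cell number change: cells counted by Cell Tracker Red CMTPX staining in the red channel.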 The note with it: BODIPY lipid droplet fluorescence, 18-24 h; for cell number change: measured here: cell count max response, cells fed with added oleic acid. In outline:
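Drosophila S3 cells loaded with oleic acid (400 uM, as added) and compounds at several concentrations; lipid droplets imaged by 488-nm laser-scanning cytometry, 500–530 nm intensity and object ratio to cell channel. Percent activity normalized to 20 uM Triacsin C.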

Where [1] appears, read: measured here: lipid fluorescence (Fed channel) AC50, cells fed with added oleic acid.
The mark [2] stands for this setting: measured here: cell number channel AC50, cells fed with added oleic acid.

The values that follow come from PubChem BioAssay AID2685 (National Center for Advancing Translational Sciences (NCATS), 2010).

Molecules are shown by their SMILES. The list shows a part of the results. These are further read-outs of the screen, such as a control signal, another cell line or another target. No call is given for them. Most of these compounds were active or inconclusive in the main read-out, so they are no random draw. The note in brackets gives the kind of curve behind each potency; many fits are weak.

What is called AC50 is the midpoint of the concentration-response curve, whichever way the signal moves. High values mean activity only at high concentration, low ones activity at low concentration. Consider `CC(C)CCN1C(=O)CCC1(C)C(=O)NC1CCCCCCC1` (configuration not stated), for which the cell number change came to 14.3%. Further, under setting [1], the AC50 was 6510 nM [falling, full curve, poor fit].

For `COc1ccc(NC(=O)Nc2ccc(C)cc2Br)c(OC)c1`, the cell number change is -13.2%. The AC50 under setting [1] is 651 nM [falling, single point].

With `Cc1ccccc1OCCC(=O)N1CCN(S(=O)(=O)c2ccc(Br)cc2)CC1`, the cell number change is 37.5%. Also, under setting [2], the AC50 was 5170 nM [rising, partial curve, poor fit]. Further, the AC50 under setting [1] was 6510 nM [rising, single point].

In the case of `COc1nnc(OC)c2ccccc12`, the cell number change was -77.4%. Further, the AC50 under setting [2] was 29100 nM [falling, single point]. For the same molecule, under setting [1], the AC50 is 1160 nM [rising, full curve].

Take `CCCN(CCC)CC(O)CN(c1cc([N+](=O)[O-])ccc1OC)S(=O)(=O)c1ccccc1` (configuration not stated): the concentration at half-maximal activity (AC50) is 3660 nM [rising, single point] under setting [2] and 6510 nM [rising, single point] under setting [1].

Regarding `CCCC(NS(=O)(=O)c1ccc(Br)cc1)C(=O)O` (configuration not stated), the cell number change was -23.5%. Under setting [1], the AC50 is 164 nM [falling, full curve, poor fit].

Regarding `CN(CC(=O)N1CCCC1)S(=O)(=O)c1cccc(Cl)c1`, the cell number change turned out to be 26.3%. The AC50 under setting [1] is 15800 nM [falling, single point].

As for `CCC(C(=O)NC1CCCC1)N(C(=O)c1snc(C(N)=O)c1N)c1ccc(C)cc1C` (configuration not stated), the cell number change was 14.6%.

With `COc1ccc(CC(NC(C)=O)C(=O)NC2CCN(c3nc(C)cc(C)c3C#N)CC2)c(OC)c1` (configuration not stated), the cell number change amounted to 14.5%. Besides, the AC50 under setting [1] is 2590 nM [rising, full curve, poor fit].

Turning to `OC(COC1CCCCC1)CN1CCCCC1` (configuration not stated), the cell number change is -13.9%.

Regarding `CC1CCN(CCCNC(=O)c2ccc(CSCc3cccc(Cl)c3)o2)CC1`, the cell number change worked out at 4.79%. Further, under setting [1], the AC50 is 651 nM [falling, full curve, poor fit].

`CCOn1c(=O)c(-c2cc3ccccc3o2)[n+]([O-])c2ccccc21`: the cell number change turned out to be 62%. In addition, the AC50 under setting [2] was 2590 nM [rising, full curve]. Under setting [1], the AC50 was 5170 nM [rising, partial curve].

Turning to `O=C(COc1ccc(Cl)cc1)NCCS(=O)(=O)N1CCN(c2ccccc2F)CC1`, the cell number change worked out at 21%. For the same molecule, the AC50 under setting [1] was 731 nM [rising, partial curve].

Take `CC(N)C(=O)NC(C(=O)N1CCCC1C(=O)NC(c1ccccc1)c1ccccc1)C(C)C` (configuration not stated): the cell number change was -31.4%. The AC50 under setting [2] was 92 nM [falling, full curve]. Further, under setting [1], the AC50 was 116 nM [falling, full curve].

For `O=C(NCc1ccco1)C1CCCN(S(=O)(=O)c2cnc[nH]2)C1` (configuration not stated), the cell number change is -12.2%.

`COc1ccc(C(O)c2nc3ccccc3n2C)cc1OC` (configuration not stated): the cell number change was -33.8%. In addition, under setting [2], the AC50 is 29100 nM [falling, single point]. Under setting [1], the AC50 was 29100 nM [falling, single point].

In the case of `COc1ccccc1C(=O)ON=C1c2ccccc2-c2ccccc21`, the cell number change is -36.9%. The AC50 under setting [2] is 1030 nM [falling, partial curve].

With `Cc1ccc(NC(=O)C2Oc3ccccc3OC2C)cc1` (configuration not stated), the cell number change was -6.08%.

`CCOC(=O)CSc1cc(C)c(C#N)c2nc3ccccc3n12`: the AC50 is, setting by setting: under setting [2], 920 nM [rising, partial curve, poor fit]; under setting [1], 3660 nM [rising, partial curve, poor fit].

With `CNC(=S)Nc1cccc([N+](=O)[O-])c1`, the cell number change was 7.91%.

Turning to `CCCCCn1c(N)c(-c2nc3ccccc3s2)c2c([N+](=O)[O-])nn(C)c(=O)c21`, the cell number change was -20.6%. Under setting [1], the AC50 is 731 nM [falling, full curve].

`N=c1sccn1CC(=O)Nc1cc(S(=O)(=O)N2CCCC2)ccc1Cl`: the cell number change worked out at 16.5%. The AC50 under setting [1] is 29100 nM [rising, single point].

For `CC(=O)NS(=O)(=O)c1ccc(NC(=O)COc2cccc3c2OC(C)(C)C3)cc1`, the cell number change is 1.39%. For the same molecule, under setting [1], the AC50 was 3260 nM [rising, full curve].

For the molecule `O=C(O)CCC(=O)N1CCc2cc(S(=O)(=O)N(CCc3ccccc3)Cc3ccccc3)ccc21`, the cell number change was 23.8%. Besides, under setting [1], the AC50 was 326 nM [falling, full curve].

Regarding `COC(=O)c1[nH]c2cc(OC)ccc2c1N`, the cell number change is -15.2%. The AC50 under setting [1] was 731 nM [falling, partial curve].

On to `CN(C)c1cc[n+](CC(=O)Nc2c(Cl)cc(Cl)cc2Cl)cc1`, for which the cell number change was -12.8%. Also, the AC50 under setting [1] is 29100 nM [falling, single point].

As for `Cc1ccc(Nc2nc3nonc3nc2N(C)C)cc1`, the cell number change turned out to be 17%. The AC50 under setting [1] was 1640 nM [rising, partial curve, poor fit].

As to `CC(C)(CO)NC12CC3CC(CC(C3)C1)C2`, under setting [1], the AC50 was 25900 nM [falling, partial curve].

In the case of `CN1CCN(CCCNC(=O)c2cc3c(=O)oc4ccccc4c3s2)CC1`, the cell number change came out at 4.06%.

Turning to `Cc1scc(C(=O)NNC(=O)CCC(=O)O)c1C`, the cell number change is -6.07%. The AC50 under setting [1] was 58 nM [falling, full curve, poor fit].

For `O=C(NCC1CCCO1)NC12CC3CC(CC(C3)C1)C2` (configuration not stated), the cell number change came out at 21.3%. For the same molecule, the concentration at half-maximal activity (AC50) under setting [1] is 731 nM [rising, full curve, poor fit].

As for `COc1ccc(-n2nc(C(=O)Nc3ccc(OC)c(OC)c3)c3c4ccccc4n(C)c3c2=O)cc1`, the AC50 by setting is: under setting [2], 580 nM [rising, full curve]; under setting [1], 23100 nM [rising, partial curve].

`O=C(c1ccccc1)c1ccc(N2CCOCC2)c(F)c1`: the cell number change was -9.42%. Besides, the AC50 under setting [1] is 651 nM [falling, single point].

`NCCNCCNCCN`: the cell number change was -0.899%. The AC50 under setting [1] is 5170 nM [falling, partial curve].

In the case of `O=C(NC(=S)Nc1ccccc1O)c1ccc(Cl)cc1Cl`, the cell number change is -5.73%. Also, the AC50 under setting [1] was 7310 nM [falling, full curve, poor fit].

With `O=C(CSc1nc(-c2ccco2)cc(C(F)(F)F)n1)NN1CCOCC1`, the cell number change was -23.6%.

`COc1ccc(CC(=O)NNC(=O)COc2ccc3ccccc3c2)cc1`: the cell number change is -10.6%. Further, the AC50 under setting [1] was 326 nM [rising, full curve, poor fit].

For the molecule `COc1ccc([N+](=O)[O-])cc1NC(=O)N(C)Cc1ccco1`, the cell number change was -0.223%. Further, the AC50 under setting [1] is 29100 nM [falling, single point].

For `Clc1ccc(-c2cn3cccnc3n2)cc1`, the AC50 under setting [2] is 2310 nM [rising, single point].

Take `CC(C)=C1C2CCC1C(C(=O)Nc1sc(C)c(-c3ccc(C(C)C)cc3)c1C(N)=O)C2C(=O)O` (configuration not stated): the cell number change was -52.6%. Moreover, the AC50 under setting [2] is 20600 nM [falling, partial curve, poor fit]. The AC50 under setting [1] was 4110 nM [rising, partial curve].
